# In PubChem BioAssay AID2685 (National Center for Advancing Translational Sciences (NCATS), 2010):
# The whole screen tested about 320,000 compounds, of which about 2,100 (0.66%) were called active. The inconclusive results got no clear call from the source; some entries with a clear call stand among them for comparison. Calls follow the shape of the dose curve; as a rule, active = well fitted inhibition curve with a large enough effect in the signal ratio, with a control signal flat (not every such curve was filed as active); inconclusive = small, poorly fitted or top-dose-only effect, or effect the other way, or a change in a side signal; inactive = flat fitted curve, though single readings scatter; the % refers to the signal ratio. A potency beside an inconclusive call is a rough fit, not a confirmed value.
# Assay: qHTS Assay for Lipid Storage Modulators in Drosophila S3 Cells
# Conditions: BODIPY lipid droplet fluorescence, 18-24 h, cells fed with added oleic acid; lipid storage change, negative = inhibition: at 46.1 µM (top of the series) unless noted
# Outline: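 Laser-scanning cytometry quantifies lipid droplet accumulation (500–530 nm total intensity; droplet/cell object ratio) in oleic acid-fed (400 uM added) Drosophila S3 cells treated with a concentration series. 20 uM Triacsin C defined 100% inhibition.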
# % is scaled to controls: 0 for no effect and ±100 for the full control effect; potency is read from the fitted curve at half-maximal effect.
SMILES,"lipid storage change, negative = inhibition",Potency
Cc1noc(C)c1-c1nc(CSc2ccccc2)no1,inconclusive: 12.1%,–
C=CCOc1ccc2ccccc2c1/C=N/O,–,"inconclusive: 6.51 µM [falling, single point]"
O=C(Nc1ccc(S(=O)(=O)Nc2ccccn2)cc1)c1cccc(Br)c1,–,"inconclusive: 29.1 µM [falling, single point]"
CC(CC(=O)Nc1ccc(S(=O)(=O)Nc2ncccn2)cc1)c1ccccc1 (stereo unspecified),–,"inconclusive: 14.6 µM [activator, partial curve]"
CCCN(CC(=O)Nc1ccccc1OC)C(=O)CCNC(=O)c1ccccc1OC,–,"inconclusive: 2.59 µM [activator, full curve, poor fit]"
Cc1ccc(NC(=S)Nc2cccc3cnccc23)cc1,inconclusive: 24.6%,–
O=C(CN1C(=O)NC2(CCCCC2)C1=O)Nc1cccc2ncccc12,inconclusive: -50%,–
Cc1cc(C)c2c(=O)n(-c3ccccc3)[nH]c2n1,–,"inconclusive: 2.91 µM [activator, single point]"
CN(CC(=O)Nc1ccc(F)cc1)C(=O)c1ccccc1OCc1ccc(F)cc1,inconclusive: 6.6%,–
CCOCCCNCc1ccc(OCC(=O)N2CCOCC2)c(OC)c1,inconclusive: -0.286%,–
Cn1c(=O)c2cc(S(=O)(=O)Nc3cc(C(=O)O)cc(C(=O)O)c3)ccc2n(C)c1=O,inconclusive: 6.09%,–
Nc1nc(SCC(=O)N2CCOCC2)[nH]c(=O)c1-c1ccccc1,–,"inconclusive: 6.51 µM [falling, single point]"
Cc1ccc(N(C(=O)c2ccco2)C2C=CS(=O)(=O)C2)cc1 (stereo unspecified),inconclusive: 43.4%,–
COc1ccc(N2C(=O)CSC2c2ccccc2)cc1 (stereo unspecified),inactive: 3.7%,–
CCOc1ccc2nc(NC(=O)CN3C(=O)C4CCCCC4C3=O)sc2c1 (stereo unspecified),inconclusive: -38.3%,–
Cc1nc2ccc(NC(=O)c3cccnc3)cc2s1,inconclusive: 63.2%,–
C=C1C[C@@]23CCC4[C@@](C)(CCC[C@@]4(C)C(=O)OC)C2CC[C@]1(OC(C)=O)C3 (stereo partly specified),inconclusive: 19.7%,–
COc1ccc(NC(=O)CSCC(=O)N2CCN(c3cccc(C(F)(F)F)c3)CC2)cc1,inconclusive: -88.3%,–
Cc1cc(NC(=O)COc2cccc([N+](=O)[O-])c2)no1,–,"inconclusive: 20.6 µM [falling, single point]"
COc1ccc(NC(=O)N2CCCC(CCC(=O)N(C)CCc3ccccn3)C2)cc1 (stereo unspecified),inactive: 3.61%,–
COc1ccc(N(CC(=O)N2CCc3ccccc3C2)S(=O)(=O)c2c(C)nn(C)c2C)cc1,inconclusive: 10.6% [at 9.22 µM],–
COc1cccc(/C=N/n2c(-c3ccco3)nc3ccccc3c2=O)c1OC,–,"inconclusive: 6.51 µM [activator, single point]"
CC(C)=CCN1CCC(n2nccc2NC(=O)c2ccccc2Cl)CC1,inconclusive: 14.7%,–
C=CC(=O)OCCOCCOCCOCCOC(=O)C=C,–,"inconclusive: 25.9 µM [activator, single point]"
COc1cc(C(=O)NCCOc2cccc(C)c2)c(Br)c(OC)c1OC,inconclusive: -38.6%,–

# Complete entries as entered above. Values in the order: lipid storage change, negative = inhibition | Potency
# `COc1ccc(N2C(=O)CSC2c2ccccc2)cc1` (stereo unspecified) is entered as inactive: 3.7% | –
# `Cc1cc(C)c2c(=O)n(-c3ccccc3)[nH]c2n1` is entered as – | inconclusive: 2.91 µM [activator, single point]
# `Cc1ccc(NC(=S)Nc2cccc3cnccc23)cc1` is entered as inconclusive: 24.6% | –

# (list continues)

SMILES,"lipid storage change, negative = inhibition",Potency
CN(C)S(=O)(=O)n1cc(/C=C(\NC(=O)c2ccccc2)C(=O)NCCCN2CCOCC2)c2ccccc21,–,"inconclusive: 2.06 µM [activator, partial curve]"
COc1ccc(OC)c(S(=O)(=O)Nc2cc3c(cc2N2CCCC2)n(C)c(=O)c(=O)n3C)c1,inconclusive: -15.4%,–
CCOC(=O)C1=C(C)NC(c2cccs2)C(=O)N1 (stereo unspecified),inconclusive: 8.16%,–
Cn1nnnc1SCC(=O)NC1CCCC1,–,"inconclusive: 0.13 µM [activator, partial curve, poor fit]"
COc1ccc(N/N=C(/C(N)=O)C2=NC(C)(C)Cc3ccccc32)cc1,–,"inconclusive: 29.1 µM [cytotoxic, single point]"
CC(=O)N1CCN(S(=O)(=O)c2cccc(C(=O)NNC(=O)COc3ccc(F)cc3)c2)CC1,inconclusive: 7.79%,–
CC(=O)Nc1ccc(NS(=O)(=O)c2cc(-c3n[nH]c(=O)c4ccccc34)ccc2C)cc1,inconclusive: 6.28%,–
CCN1CCN(CC(=O)Nc2nc3ccc(OC)cc3s2)CC1,inconclusive: -143%,–
CS(=O)(=O)c1ccc(C(=O)Nc2ccc(N3CCCC3)cc2)c(Cl)c1,inconclusive: 6.79%,–
Cc1ccc2cc(CCNC(=O)C(=O)c3c(C)[nH]c4ccccc34)c(=O)[nH]c2c1,inconclusive: 25.7% [at 9.22 µM],–
COc1cccc(/C=C/C(=O)OCC(=O)NCc2ccco2)c1OC,inconclusive: -3.95%,–
CC(C)(O)c1cc2ccc(C#Cc3ccsc3)cc2c(=O)o1,inconclusive: 1.82%,–
CC(C)c1nc(SCC(=O)Nc2ccc3c(c2)OCO3)n[nH]1,–,"inconclusive: 6.51 µM [activator, single point]"
CC1CCCN(c2ccc(C(=O)NCc3ccco3)cc2[N+](=O)[O-])C1 (stereo unspecified),inconclusive: -177%,–
O=C(CSc1nnc(CNC(=O)c2ccc(F)cc2)o1)NCc1ccccc1,–,"inconclusive: 0.058 µM [falling, full curve, poor fit]"
[O-]/[N+](=C\c1ccco1)c1ccc(Cl)cc1,inconclusive: -42.5%,–
Cc1nn(CC(=O)NC(=O)NC2CCCCC2C)c(=O)c(C#N)c1C (stereo unspecified),inconclusive: 57.8%,–
Cc1cc(C(=O)N/N=C/c2ccc(-c3cccc(Br)c3)o2)n[nH]1,inconclusive: -20.6%,–
COC(=O)[C@@]1(Cc2ccc(F)cc2)[C@H]2c3cc(C(=O)N(C)C)n(CCc4ccccn4)c3C[C@H]2CN1C(=O)c1ccccc1,inconclusive: -4.47%,–
Cc1cccc(C)c1NC(=O)C(c1ccc([N+](=O)[O-])cc1)N1CCCCC1 (stereo unspecified),inconclusive: -9.53%,–
CCC(C)(C)NC(=O)C(c1ccc(OC)cc1)N(CC1CCCO1)C(=O)CCC(=O)Nc1cc(C)on1 (stereo unspecified),inconclusive: -19.3%,–
CCOC(=O)CN1C(=O)C2(OCCCO2)c2ccccc21,–,active: 23.1 µM
Cc1ncsc1C(=O)Nc1nc2c(s1)CCCC2,–,"inconclusive: 1.84 µM [rising, partial curve, poor fit]"
CC(=O)NC(CC(C)C)C(=O)NC(=O)NCc1ccccc1 (stereo unspecified),inconclusive: -36.4%,–
CCOC(=O)Cn1c(=O)oc2cc(S(=O)(=O)Nc3ccc(F)cc3)ccc21,inconclusive: 44%,–
COc1ccc(CCC(=O)NCCS(=O)(=O)N2CCN(c3ccccc3)CC2)cc1,inconclusive: 42.6% [at 0.0737 µM],–

SMILES,"lipid storage change, negative = inhibition",Potency
COc1ccc(NC(=S)c2ccc3ccccc3n2)cc1,–,"inconclusive: 29.1 µM [falling, single point]"
CCn1c(SCC(=O)Nc2ccc3c(c2)OCO3)nnc1C(C)C,–,"inconclusive: 29.1 µM [activator, single point]"
CCOc1ccc(-c2nnn(CC(=O)Nc3ccccc3OC)n2)cc1OCC,–,"inconclusive: 0.92 µM [activator, full curve]"
COc1cc(NC(=O)c2cccc([N+](=O)[O-])c2)ccc1NC(=O)c1cc2ccccc2o1,inconclusive: -6.78%,–
O=C(COC(=O)CCSc1ccc(Cl)cc1)NCc1ccccc1Cl,inconclusive: -1.04%,–
O=C(NCC1CCCO1)c1cc(C(=O)C2CC2)c[nH]1 (stereo unspecified),inconclusive: 3.97%,–
O=C(Nc1ncccn1)c1cccs1,inconclusive: -5.75%,–
CCC(C)(C)NC(=O)CN(Cc1ccccc1)C(=O)CCC(=O)Nc1nccs1,inconclusive: 11.8%,–
Cc1ccc(Cn2c(=O)c3c(nc4n3CCCN4Cc3ccccc3)n(C)c2=O)cc1,inconclusive: -34.6%,–
Cc1oc2c(C)c3oc(=O)c(CCC(=O)N4C[C@H]5C[C@@H](C4)c4cccc(=O)n4C5)c(C)c3cc2c1C,inconclusive: -51.4%,–
COc1ccc(C(=O)NCc2ccc(S(N)(=O)=O)cc2)cc1[N+](=O)[O-],inconclusive: 45%,–
CC1(NC(=O)C2CCN(C(=O)Nc3ccccc3)CC2)CCS(=O)(=O)C1 (stereo unspecified),inconclusive: -13.5%,–
CC(=O)c1c(C)[nH]c(C(=O)N2CCCC(C)C2)c1C (stereo unspecified),inconclusive: 16.7%,–
COC(=O)CSc1cc([N+](=O)[O-])cc2c1c(C1OCCO1)nn2-c1ccccc1,inconclusive: 5.7%,–
O=C(O)C1CC=CCC1C(=O)NCCCCc1ccccc1 (stereo unspecified),inconclusive: -17%,–
COc1ccc([C@H]2CC(=O)C=C(C#CC(C)(C)C)C2)cc1,–,"inconclusive: 14.6 µM [activator, partial curve]"
CC(C)=C1C2C=CC1C(C(=O)Nc1cccc(C)c1)C2C(=O)O (stereo unspecified),–,"inconclusive: 0.206 µM [falling, full curve, poor fit]"
CC(C)C(NS(=O)(=O)c1cccc2nsnc12)C(=O)N1CCc2ccccc2C1 (stereo unspecified),–,"inconclusive: 4.11 µM [falling, full curve]"
COc1ccc(OCCn2cnc3ccccc32)cc1,inconclusive: -23%,–
Cc1c(NC(=O)C(C)N2CC(C)OC(C)C2)c(=O)n(-c2ccccc2)n1C (stereo unspecified),–,active: 7.31 µM
CC(=O)Nc1ccc(C(=O)COC(=O)c2ccco2)c(F)c1,inconclusive: 11.8%,–
CC1=C(C(=O)OC(C)C)C(c2ccccc2)NC(=S)N1C (stereo unspecified),inconclusive: -0.258%,–
COC(=O)c1c(NC(C)=O)sc2c1CCCCC2,inconclusive: 23.5%,–
COCCn1c(C)cc(C2=NNC(=Nc3ccccc3)SC2)c1C,inconclusive: 12.6%,–

# Arranged by number of heavy atoms (rising): some entries from above
SMILES,"lipid storage change, negative = inhibition",Potency
O=C(Nc1ncccn1)c1cccs1,inconclusive: -5.75%,–
Cc1cc(C)c2c(=O)n(-c3ccccc3)[nH]c2n1,–,"inconclusive: 2.91 µM [activator, single point]"
COc1ccc(OCCn2cnc3ccccc32)cc1,inconclusive: -23%,–
